# In all, about 580,000 compounds went through this assay and about 6,100 (1.1%) were called active. Inconclusive results, whose numbers are uncertain, are shown with a selection of clear calls. The call rests on the fitted dose curve; in most records, active means well fitted inhibition curve with a large enough effect; inconclusive means small, poorly fitted or top-dose-only effect, or another doubt; inactive means no such curve, though single readings can be large or run the other way. Where the call is inconclusive, the potency comes from a doubtful curve fit.
# Chains of the proteins cited; added tags and fusions are not shown. Lines headed by an entry give the natural chain unless they say otherwise; changes in a name come on top.
# UniProt P18054: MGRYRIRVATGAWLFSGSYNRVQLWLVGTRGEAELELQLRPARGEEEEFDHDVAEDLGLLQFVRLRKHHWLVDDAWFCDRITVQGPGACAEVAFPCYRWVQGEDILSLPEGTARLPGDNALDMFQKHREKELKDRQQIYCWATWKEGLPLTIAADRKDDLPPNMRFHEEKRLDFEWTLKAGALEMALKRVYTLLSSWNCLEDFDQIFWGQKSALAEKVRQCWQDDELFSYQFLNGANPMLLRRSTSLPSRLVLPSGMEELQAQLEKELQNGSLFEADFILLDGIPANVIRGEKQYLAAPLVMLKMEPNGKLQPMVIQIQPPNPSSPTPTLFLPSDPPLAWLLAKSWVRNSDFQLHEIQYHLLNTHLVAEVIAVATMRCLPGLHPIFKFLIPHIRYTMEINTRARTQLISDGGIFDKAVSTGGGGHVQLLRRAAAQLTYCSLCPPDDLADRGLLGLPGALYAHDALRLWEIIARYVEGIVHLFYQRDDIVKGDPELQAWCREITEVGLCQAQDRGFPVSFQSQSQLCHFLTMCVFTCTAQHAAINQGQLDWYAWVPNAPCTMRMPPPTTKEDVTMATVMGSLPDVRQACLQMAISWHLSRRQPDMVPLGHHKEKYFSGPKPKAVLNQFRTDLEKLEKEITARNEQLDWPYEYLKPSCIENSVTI
# Target: Polyunsaturated fatty acid lipoxygenase ALOX12 (Homo sapiens) (UniProt P18054)
# Assay: Primary qHTS assay for inhibitors of human arachidonate 12S-lipoxygenase (ALOX12): Round 2
# Details: purified 12hLO, xylenol orange hydroperoxide absorbance; activity change, negative = inhibition: at 108 µM (top of the series) unless noted
# Procedure, shortened: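 Purified human 12hLO (150 nM final) in 25 mM Hepes, 0.01% Triton X-100, pH 7.0 was preincubated 15 min at room temperature with compound. Then 40 uM arachidonic acid was added, 30 min. Hydroperoxide was read by Fe-XO absorbance ratio 573/405 nm.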
# On the % scale 0 is the no-effect control and ±100 the full control effect; potency means the concentration at half of the fitted maximal effect.
SMILES,Potency,"activity change, negative = inhibition"
O=C(Nc1cccc(Cl)c1)c1csc(C(O)c2cccc(C(F)(F)F)c2)n1 (centres undefined),"inconclusive: 39.8 µM [inhibitor, partial curve, poor fit]",–
COc1ccc(S[C@@H](CCN2CC[C@H](C)CCC2=O)c2ccccc2)cc1,–,inactive: -10.6%
COc1ccc(-c2cc(-c3ccco3)[nH]c(=O)c2C#N)cc1OC,"inconclusive: 44.7 µM [inhibitor, partial curve, poor fit]",–
COc1ccc(C(=O)NCc2nnc(SCC(=O)NCCc3ccccc3)o2)cc1,"inconclusive: 11.2 µM [inhibitor, partial curve, poor fit]",–
O=CNNC(=S)Nc1ccc(Cl)cc1Cl,–,inactive: 34.9%
CCn1c(SCC(=O)OC(C)C)nnc1-c1ccccc1,"inconclusive: 100 µM [inhibitor, single point]",–
CN(C)c1ccc(-c2csc(C(O)c3cccc(Cl)c3)n2)cc1 (centres undefined),"inconclusive: 100 µM [inhibitor, partial curve, poor fit]",–
O=C(CSc1nc(-c2ccco2)cc(C(F)(F)F)n1)N1CCN(Cc2ccccc2)CC1,"inconclusive: 50.1 µM [inhibitor, partial curve, poor fit]",–
CC(=O)Nc1ccc(-c2csc(NC(=O)CC(NC(C)=O)c3ccccc3)n2)cc1 (centres undefined),"inconclusive: 56.2 µM [inhibitor, partial curve, poor fit]",–
CCOc1ccc(Br)cc1S(=O)(=O)Nc1cccc(S(=O)(=O)N(C)c2ccccc2)c1,"inconclusive: 25.1 µM [inhibitor, full curve, poor fit]",–
NS(=O)(=O)c1ccc(NC(=O)CN(Cc2ccc3c(c2)OCO3)C2CCCC2)cc1,–,inactive: -23.3%
COCCCn1c(C(C)Oc2ccc(C(C)(C)C)cc2)n[nH]c1=S (centres undefined),"inconclusive: 35.5 µM [inhibitor, partial curve, poor fit]",–
COCc1cccc(C2=CC(=O)C[C@H](c3ccc(F)cc3)C2)c1,–,inactive: 1.76%
CC(C)=CC(O)C/C(C)=C/COc1ccc2ccc(=O)oc2c1 (centres undefined),–,inactive: 26.5%
COC(=O)C1C(=O)CC(C)(O)C(C(=O)OC)C1c1ccc(C)cc1 (centres undefined),"inconclusive: 126 µM [inhibitor, single point]",–
COc1cccc(-c2nc(N(C)C)c3ccccc3n2)c1,"inconclusive: 5.62 µM [inhibitor, full curve, poor fit]",–
NC(=O)CSc1ncc2c(n1)-c1ccccc1N(Cc1ccc(F)cc1)S2(=O)=O,"inconclusive: 100 µM [inhibitor, single point]",–
O=S(=O)(c1ccc(F)cc1)N1CCN(CC(O)COCC2CCCO2)CC1 (centres undefined),"inconclusive: 1.58 µM [inhibitor, full curve, poor fit]",–
CCN1C(=O)N/C(=C/c2cn(CC)c3ccccc23)C1=O,"inconclusive: 11.2 µM [inhibitor, full curve, poor fit]",–
O=C1NC[C@H](CCCCN2C[C@H](Cc3ccccc3)N(CC3CCCCC3)C(=O)C2=O)N(CCC2CCCCC2)C1=O,"inconclusive: 31.6 µM [inhibitor, partial curve, poor fit]",–
CC(C)CC(=O)N1CCC(N2CC3CC(C2)[C@H]2CCCC(=O)N2C3)CC1 (some centres undefined),–,inactive: 4.69%
O=C(/C=C/c1ccc(OC2CSC2)cc1)c1ccccc1,–,inactive: 7.92%

SMILES,Potency,"activity change, negative = inhibition"
Cc1ccc([C@H]2C[C@@H](O)[C@H](n3cc(C4CC4)nn3)CN2Cc2cccs2)cc1,"inconclusive: 39.8 µM [inhibitor, partial curve, poor fit]",–
Cc1cccc(-n2cc(-c3ccccc3)c3c(N4CCCC4)ncnc32)c1,"inconclusive: 0.891 µM [inhibitor, full curve, poor fit]",–
Clc1ccc(CN2CCc3ccccc3C2)cc1,"inconclusive: 79.4 µM [inhibitor, single point]",–
CCCCOc1ccc2c(=O)c(-c3ccc4c(c3)OCCCO4)c(C)oc2c1,–,inactive: 64.9%
CC(C)CC#Cc1ccc2c(c1)O[C@H](CN(C)C(=O)Cc1ccncc1)[C@H](C)CN([C@H](C)CO)S2(=O)=O,"inconclusive: 44.7 µM [inhibitor, partial curve, poor fit]",–
c1coc(-c2nc(CSc3ccc4c(c3)OCCCO4)cs2)c1,"inconclusive: 15.8 µM [inhibitor, full curve]",–
Cc1ccc(CNC(=O)c2ccc(Cn3c(=O)c4ccccc4n(CC(=O)Nc4c(C)cc(C)cc4C)c3=O)cc2)cc1,"inconclusive: 79.4 µM [inhibitor, partial curve, poor fit]",–
O=C(NCCn1ccn2nc(-c3ccc(F)cc3)cc2c1=O)c1ccoc1,"inconclusive: 25.1 µM [inhibitor, partial curve, poor fit]",–
COc1cc2c(cc1OC)C(C(=O)Nc1cc(C)c(OC)c(C)c1)CC(=O)N2 (centres undefined),"inconclusive: 79.4 µM [inhibitor, single point]",–
O=C(NCC(c1cccs1)S(=O)(=O)c1cccs1)c1cccc(F)c1 (centres undefined),–,inactive: 0%
NC(=S)NN=C1CCCCCCCC1,"inconclusive: 25.1 µM [inhibitor, full curve]",–
CCNc1ncc2nc(-c3ccc(Cl)cc3)c(=O)n(Cc3cccs3)c2n1,"inconclusive: 112 µM [inhibitor, single point]",–
Cc1cccc(C(C)C)c1NC(=O)c1ccc2ccccc2n1,"inconclusive: 50.1 µM [inhibitor, partial curve, poor fit]",–
CCNc1nc(-c2ccc(NC(C)=O)cc2F)cs1,active: 7.08 µM,–
Cc1ccc(S(=O)(=O)N2CCN(C(=O)c3n[nH]c4ccccc34)CC2)cc1,"inconclusive: 112 µM [inhibitor, single point]",–
COCC1CN(C2CCC2)CC12CCN(C(=O)Cn1cccn1)CC2 (centres undefined),–,inactive: 86.4%
O=C(NCc1ccc2c(c1)OCO2)c1cccc(N2CCCC2=O)c1,"inconclusive: 126 µM [inhibitor, single point]",–
Nc1nnc(-c2cc3ccccc3oc2=O)s1,–,inactive: 26.4%
Cc1ccc(C2NC(=O)N(CC(=O)Nc3cc(F)cc(F)c3)C3=C2C(=O)OC3)cc1 (centres undefined),"inconclusive: 28.2 µM [inhibitor, partial curve]",–
CCSc1nnc(Nc2ccc(C)cc2)s1,"inconclusive: 56.2 µM [inhibitor, partial curve, poor fit]",–
Cn1c(CNC(=O)c2ccccc2)nnc1SCC(=O)Nc1nccs1,"inconclusive: 2.82 µM [inhibitor, full curve, poor fit]",–
CCOc1ccccc1CN1CCC2(CCN(C(=O)c3cccc(Cl)c3)CC2)Oc2ccccc21,"inconclusive: 79.4 µM [inhibitor, single point]",–

SMILES,Potency,"activity change, negative = inhibition"
O=c1oc2c3c(ccc2c2ccccc12)OCN(Cc1ccc(Cl)cc1)C3,"inconclusive: 0.224 µM [inhibitor, full curve, poor fit]",–
CCN(CC)CCNCc1sccc1C,"inconclusive: 39.8 µM [inhibitor, partial curve, poor fit]",–
COc1ccccc1CNc1ncncc1-c1cccnc1,"inconclusive: 20 µM [inhibitor, partial curve, poor fit]",–
COc1ccc(-c2nc3ccccc3n3c(-c4ccccc4)c4c(=O)n(C)c(=O)n(C)c4c23)cc1OC,"inconclusive: 0.708 µM [inhibitor, full curve, poor fit]",–
O=C(Nc1cccc(C(F)(F)F)c1)C(Sc1cccc[n+]1[O-])c1ccccc1 (centres undefined),"inconclusive: 50.1 µM [inhibitor, partial curve, poor fit]",–
O=C(COC(=O)c1cc2ccccc2[nH]1)NC1CCCCCCC1,"inconclusive: 44.7 µM [inhibitor, partial curve, poor fit]",–
COCCNc1nnc(SCc2coc(-c3ccccc3)n2)s1,"inconclusive: 28.2 µM [inhibitor, partial curve, poor fit]",–
Cc1cc(C)c(OCCOCCN2CCN(C)CC2)c(Cl)c1,"inconclusive: 0.355 µM [inhibitor, full curve]",–
Cc1ccc2[nH]c3c(c2c1)CCc1cn[nH]c1-3,"inconclusive: 100 µM [inhibitor, partial curve, poor fit]",–
COc1cc(NS(=O)(=O)c2ccc(NC(=S)NC(=O)/C=C/c3ccc(F)cc3)cc2)ncn1,–,inactive: -11.1%
O=C(c1ccccc1)C1CCc2occc2C1=O (centres undefined),"inconclusive: 44.7 µM [inhibitor, single point]",–
NC(=O)CSc1nnc(-c2ccc(O)cc2)n1Cc1ccco1,"inconclusive: 79.4 µM [inhibitor, partial curve, poor fit]",–
Cc1cc2c(cc1NS(=O)(=O)c1cccc(C#N)c1)n(C)c(=O)c(=O)n2C,–,inactive: -8.24%
CSc1nc(NS(=O)(=O)c2ccc(F)cc2F)nn1C,"inconclusive: 11.2 µM [inhibitor, full curve]",–
O=C(CN1C(=O)S/C(=C\c2ccccc2Cl)C1=O)Nc1ccc2oc(=O)ccc2c1,"inconclusive: 50.1 µM [inhibitor, partial curve, poor fit]",–
CCN(CC)C(=O)CSc1nc2ccc(NC(=O)CSc3nccn3C)cc2s1,–,inactive: 1.67%
CCc1cccc(C)c1NC(=O)Cn1nnc(-c2nc(-c3ccccc3F)no2)c1N,–,inactive: -7.5%
CCN1C(=O)[C@@H]2[C@@H](c3ccc(-c4ccc(OC)cc4)cc3)N3CCC[C@@]3(C(=O)OC)[C@@H]2C1=O,"inconclusive: 44.7 µM [inhibitor, partial curve, poor fit]",–
COc1cccc(/C=C2\SC(=S)N(NC(=O)c3ccncc3)C2=O)c1,"inconclusive: 112 µM [inhibitor, single point]",–
Cc1ccc(-n2c(O)c(C=NC3CCS(=O)(=O)C3)c3ccccc3c2=O)cc1C (centres undefined),–,inactive: 3.94% [at 57.4 µM]

# Entries of single compounds from above. Values in the order: Potency | activity change, negative = inhibition
# O=C(Nc1cccc(C(F)(F)F)c1)C(Sc1cccc[n+]1[O-])c1ccccc1 (centres undefined) reads inconclusive: 50.1 µM [inhibitor, partial curve, poor fit] | –
# CCc1cccc(C)c1NC(=O)Cn1nnc(-c2nc(-c3ccccc3F)no2)c1N reads – | inactive: -7.5%
# Cc1ccc(CNC(=O)c2ccc(Cn3c(=O)c4ccccc4n(CC(=O)Nc4c(C)cc(C)cc4C)c3=O)cc2)cc1 reads inconclusive: 79.4 µM [inhibitor, partial curve, poor fit] | –
